PubChem BioAssay AID1159584 – Peter MacCallum Cancer Centre, 2016
Test: 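Genes that CDH1-null MCF10A cells selectively depend on to survive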 (primary screen). Cell system: human MCF10A breast epithelial cells, parental and CDH1-null. Reagents: siRNA against human genes. Read-out: 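Cell viability by CellTiter-Glo ATP luminescence, each line scaled to the mean of mock wells across plates, then CDH1-null over parental ratio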. Direction: CDH1-null / parental viability ratio: higher = CDH1-null cells survive relatively better than parental.
The whole screen tested about 18,000 reagents; below is an unselected part. Not all columns of the deposit are shown. Not given: the amount of reagent, the time to read-out.

gene knocked down | CDH1-null / parental viability ratio
NHS (GeneID 4810) | 1.25
CA14 (GeneID 23632) | 1.05
OR5H2 (GeneID 79310) | 1.07
DDIT3 (GeneID 1649) | 1.25
ESX1 (GeneID 80712) | 0.86
GREM1 (GeneID 26585) | 1
GIMAP8 (GeneID 155038) | 1.09
SPRYD3 (GeneID 84926) | 1.02
SYNE3 (GeneID 161176) | 0.8
SAC3D1 (GeneID 29901) | 1.06
RERG (GeneID 85004) | 1.24
TCF19 (GeneID 6941) | 1
NFX1 (GeneID 4799) | 0.75
SLBP (GeneID 7884) | 0.87
DZIP1L (GeneID 199221) | 0.96
ADSS1 (GeneID 122622) | 1.32
YBEY (GeneID 54059) | 1.55
IFT80 (GeneID 57560) | 0.92
QPCTL (GeneID 54814) | 0.84
GOLGA1 (GeneID 2800) | 0.87
ETF1 (GeneID 2107) | 1
CLCA3P (GeneID 9629) | 1.04
TAL1 (GeneID 6886) | 0.71
FPR1 (GeneID 2357) | 1.42
XCR1 (GeneID 2829) | 0.81
CFAP57 (GeneID 149465) | 0.89
SNTB2 (GeneID 6645) | 1
AGBL1 (GeneID 123624) | 1.08
ENTPD6 (GeneID 955) | 0.93
NIPSNAP3A (GeneID 25934) | 0.91
ZNF75D (GeneID 7626) | 1.04
STKLD1 (GeneID 169436) | 0.9
RNASET2 (GeneID 8635) | 1.09
OR4F17 (GeneID 81099) | 0.97
BMERB1 (GeneID 89927) | 1.49
PLEKHA5 (GeneID 54477) | 1.04
RREB1 (GeneID 6239) | 0.91
SLC5A4 (GeneID 6527) | 0.93
DBNDD1 (GeneID 79007) | 0.98
NR1H2 (GeneID 7376) | 2.97
ATP12A (GeneID 479) | 0.99
CDC73 (GeneID 79577) | 1.1
UBE2D4 (GeneID 51619) | 1.16
CD40 (GeneID 958) | 0.96
TAS1R1 (GeneID 80835) | 1.21
DCLK3 (GeneID 85443) | 0.81
